Data taken from PubChem BioAssay AID504648 (National Center for Advancing Translational Sciences (NCATS), 2011).
In all, about 390,000 compounds went through this assay and about 610 (0.16%) were called active. Inconclusive means that the source gave no clear call. Such entries were picked first, then a sample of the others. Calls follow the shape of the dose curve; as a rule, active = well fitted inhibition curve with a large enough effect; inconclusive = small, poorly fitted or top-dose-only effect, or effect the other way, or another doubt; inactive = no such curve, though single readings can be large or run the other way. A potency beside an inconclusive call is a rough fit, not a confirmed value.

test: Nrf2 qHTS screen for inhibitors: counterscreen for cytotoxicity; conditions: A549 ARE-Fluc cells, CellTiter-Fluor viability, 18-24 h; activity change, negative = cytotoxicity: at 46 µM (top of the series)
Excerpt: NIH Molecular Libraries Probe Production Network [MLPCN]
NIH Chemical Genomics Center [NCGC]
Assay Provider: Shyam Biswal, Johns Hopkins University
Nrf2 is a transcription factor that maintains cellular redox homoestasis and protects cells from xenobiotics. Nrf2 binds to the antioxidant response element (ARE) to induce gene expression of a broad spectrum of genes that encode for antioxidants. […] Finding a small molecule that act as an inhibitor of Nrf2 function would represent a novel therapeutic target that could lead to improvement in survival of patients undergoing chemo- and/or radio- therapy.
So here we implemented a counterscreen to weed out the cytotoxic compounds.
1. Shibata, T., et al., Genetic Alteration of Keap1 Confers Constitutive Nrf2 Activation and Resistance to Chemotherapy in Gallbladder Cancer. Gastroenterology, 2008.
2. Sjoblom, T., et al., The consensus coding sequences of human breast and colorectal cancers. Science, 2006. 314(5797): p. 268-74.
NCGC Assay Protocol Summary:
A concentration-response assay was performed with A549 ARE_Fluc cells which are suspended in 5% FBS OPTI-MEM. Five uL were dispensed into 1536-well white TC-treated plate using the Kalypsys dispenser to achieve a density of 5000 cells/well in all columns except column 1. The plate is incubated at 37deg C at 5% CO2 for 2 hours before 23 nL of compounds are added with the Kalypsys pin tool equipped with a 1,536-pin array containing 10-nL slotted pins (FP1S10, 0.457-mm diameter, 50.8 mm long; V&P Scientific). The control compounds Budesonide and Staurosporine are both added at a concentration of 2mM and Budesonide is also added as a 1:10 titration, starting at 200uM, to achieve dose-response. After an 18-24 hour incubation at 37deg C at 5% CO2, 5ul of medium is added to column 1. Afterwards 1ul of 5x of CellTiter-Fluor (Promega) is added to every well. The plate is then incubated at 37deg C at 5% CO2 for 30 minutes before they are read on the ViewLux (Perkin Elmer) for a fluorescent read Ex=405(10)/Em=525(10) for a 3 second exposure, 2x binning, and high gain. Then 3 uL of 3x BugLite is dispensed into all wells and the plate is incubated at ambient room temperature for 15 minutes. Afterwards another ViewLux read is performed using the clear filter to get a luminescent read with the settings of 40 second exposure, 2x binning, and high gain. Cytotoxicity is assessed through the first fluorescent read and then biochemical activity against Nrf2 is measured in the luminescent read.
% is scaled to controls: 0 for no effect and ±100 for the full control effect; potency is read from the fitted curve at half-maximal effect.

| SMILES | Potency | activity change, negative = cytotoxicity |
| --- | --- | --- |
| Cn1c(-c2ccccc2)cc2c3no[n+]([O-])c3ccc21 | inconclusive: 4.11 µM [falling, full curve] |  |
| CCOc1cccc2sc(N3CCN(C(=O)C(C)(C)C)CC3)nc12 |  | inactive: 6.32% |
| CCOC(=O)C1CCN(S(=O)(=O)c2ccc(NC(=O)OC)cc2)CC1 | inconclusive: 2.59 µM [falling, partial curve, poor fit] |  |
| CN(C)C(CNC(C(=O)Nc1ccc([N+](=O)[O-])cc1Br)c1ccccc1)c1ccccc1 (configuration not stated) | inconclusive: 18.4 µM [falling, partial curve, poor fit] |  |
| CCOCCCn1c(=NC(C)=O)c(C#N)cc2c(=O)n3ccccc3nc21 | inconclusive: 20.6 µM [activator, partial curve] |  |
| O=C(c1ccccc1)N1N=C(c2ccccc2)CC1c1ccccc1O (configuration not stated) | inconclusive: 29.1 µM [falling, single point] |  |
| Cc1cc(NC(=O)CSc2nc3c([nH]c4ccccc43)c(=O)n2-c2ccccc2F)no1 | inconclusive: 23.1 µM [falling, partial curve, poor fit] |  |
| CCCCNc1nc(Oc2ccc(=O)n(-c3ccccc3)n2)nc(N(CC)CC)n1 | inconclusive: 32.6 µM [falling, partial curve, poor fit] |  |
| O=C(NCCCNc1ccc([N+](=O)[O-])cc1)C(F)(F)F | inconclusive: 18.4 µM [falling, single point] |  |
| O=C(/C=C/c1cccs1)Nc1sc2c(c1C(=O)O)CCCC2 | inconclusive: 18.4 µM [falling, single point] |  |
| c1ccc2c(NCCc3c[nH]c4ccccc34)c3ccccc3nc2c1 | inconclusive: 29.1 µM [falling, single point] |  |
| COc1ccccc1[C@H]1C(c2cccc(Cl)c2)=NN(c2ccccc2)[C@@H]1CO | inconclusive: 20.6 µM [activator, single point] |  |
| CN1c2ccccc2C(C)(C)C12C=Cc1cc(O)ccc1O2 (configuration not stated) | inconclusive: 29.1 µM [falling, single point] |  |
| O=C(COC(=O)c1cc(S(=O)(=O)N2CCOCC2)ccc1F)Nc1cc([N+](=O)[O-])ccc1F |  | inactive: -2.43% |
| Cc1cc(NC(=O)CSc2nc3c(sc4ccccc43)c(=O)n2CCc2ccccc2)n[nH]1 |  | inactive: -9.56% |
| CC(OC(=O)C1CCN(S(=O)(=O)c2ccc3c(c2)OCCO3)CC1)C(=O)N(C)c1ccccc1 (configuration not stated) |  | inactive: -4.42% |

| SMILES | Potency | activity change, negative = cytotoxicity |
| --- | --- | --- |
| Cc1ccc(S(=O)(=O)N2[C@@H](c3ccc(Br)cc3)C(C(=O)O)=CC[C@H]2c2ccc(Cl)c(Cl)c2)cc1 |  | inactive: -16.1% |
| Fc1ccc(N=C2NN=C(c3cc(F)ccc3F)CS2)cc1 | inconclusive: 29.1 µM [falling, single point] |  |
| O=C(CCc1ccccc1O)N/N=C/c1ccc(Sc2cccc3cccnc23)o1 | inconclusive: 16.4 µM [falling, partial curve] |  |
| N#Cc1c(-c2ccc(Br)cc2)cc(-c2cccnc2)nc1N |  | inactive: 2.19% |
| Cc1cc(C(=O)NCc2cccs2)cs1 | inconclusive: 29.1 µM [activator, single point] |  |
| N#C/C(=C\c1c[nH]c2ccc(Br)cc12)c1ccccn1 | inconclusive: 29.1 µM [falling, single point] |  |
| O=C(COc1ccccc1)NS(=O)(=O)c1ccccc1 | inconclusive: 9.2 µM [falling, partial curve, poor fit] |  |
| Cc1ccc(-c2cc(C(=O)N3CCN(c4ccc(O)cc4)CC3)c3ccccc3n2)cc1 | inconclusive: 29.1 µM [falling, single point] |  |
| COc1ccc2c(/C=C/c3cc[n+](C)cc3)c[nH]c2c1 | inconclusive: 2.91 µM [falling, full curve] |  |
| CC[C@H](C)Cc1cn([C@@H](CCCCNC(=O)OC(C)(C)C)C(=O)NCCCCCCCCCCC(=O)N2CCN(C(=O)OC(C)(C)C)CC2)nn1 | inconclusive: 16.4 µM [falling, partial curve, poor fit] |  |
| CCC(C)n1c(=N)c(C(=O)NC2CCCCC2)cc2c(=O)n3ccccc3nc21 (configuration not stated) | inconclusive: 14.6 µM [activator, partial curve] |  |
| CCOC(=O)c1c(NC(=O)CSc2nc3ccc(C)cc3[nH]2)sc2c1CC(C)(C)NC2(C)C | inconclusive: 32.6 µM [falling, partial curve, poor fit] |  |
| CC(=O)Nc1ccc(S(=O)(=O)N(Cc2ccccc2)c2ccccn2)cc1 |  | inactive: -3.27% |
| Cc1cc(=O)oc(C)c1C(=O)Nc1cccc(F)c1 | inconclusive: 32.6 µM [falling, partial curve, poor fit] |  |
| CC1CCN(C(=O)c2ccc3c(c2NCCO)C(=O)c2ccccc2C3=O)CC1 | inconclusive: 20.6 µM [falling, partial curve, poor fit] |  |
| CCCN(CCC)c1nc(Cl)nc(NCc2ccco2)n1 | inconclusive: 9.2 µM [falling, single point] |  |

As a short view, part of the list above:

| SMILES | Potency | activity change, negative = cytotoxicity |
| --- | --- | --- |
| CCOc1cccc2sc(N3CCN(C(=O)C(C)(C)C)CC3)nc12 |  | inactive: 6.32% |
| CCOC(=O)C1CCN(S(=O)(=O)c2ccc(NC(=O)OC)cc2)CC1 | inconclusive: 2.59 µM [falling, partial curve, poor fit] |  |
